Patent US6358688B1, “Immortalized human middle ear epithelial cell lines” (House Ear Institute, priority 1999, dated 2002)
For at least one compound, name, drawing or mass did not settle the structure.

Legend:
Assay in all cases: RT-PCR of mucin mRNA expression after retinoic acid
Assay type in all cases: cell-based, human
[1] = system: MUC1 mRNA
[2] = system: MUC2 mRNA; settings: HMEEC-1 cell line
Method: Polymerase chain reaction (PCR) assays were performed essentially following the package insert of the commercially available Gene-Amp kit (document No. 55635-6/89, available from Perkin-Elmer/Cetus, Emeryville, Calif.). The following reagents were mixed in a 0.5 mL polypropylene tube and used in performing PCR:
After mixing, the reaction mixture was overlayed with a drop of mineral oil to 30 cycles of PCR, with the following cycle profile: 30 second denaturation, 1 minute annealing and 2 minute extension. The PCR products were run on a 1.2% TAE agarose gel.
Expression of various genes was confirmed using the following PCR primers specific for: […]

[3] = system: MUC5AC mRNA
[4] = system: MUC5B mRNA

## CC1=C(/C=C/C(C)=C/C=C/C(C)=C/C(=O)O)C(C)(C)CCC1 [Retinoic acid]
[1]; HMEEC-1, RT-PCR
  MUC1 mRNA levels in response to RA: did not change
[1]; primary cells, RT-PCR
  MUC1 mRNA levels in response to RA: did not change
[2]
  MUC2 expression in response to RA: upregulated
[3]; HMEEC-1 cell line
  MUC5AC mRNA levels in response to RA: upregulated
[3]; primary human middle ear epithelial cells
  MUC5AC mRNA levels in response to RA: upregulated
[4]; HMEEC-1, RT-PCR
  MUC5B mRNA levels in response to RA: did not change
[4]; primary cells, RT-PCR
  MUC5B mRNA levels in response to RA: did not change
